Experimental data as given in ChEMBL document CHEMBL1126949 (J Med Chem, 1993).

Chains of the proteins cited; added tags and fusions are not shown.
UniProt P19020, whole entry: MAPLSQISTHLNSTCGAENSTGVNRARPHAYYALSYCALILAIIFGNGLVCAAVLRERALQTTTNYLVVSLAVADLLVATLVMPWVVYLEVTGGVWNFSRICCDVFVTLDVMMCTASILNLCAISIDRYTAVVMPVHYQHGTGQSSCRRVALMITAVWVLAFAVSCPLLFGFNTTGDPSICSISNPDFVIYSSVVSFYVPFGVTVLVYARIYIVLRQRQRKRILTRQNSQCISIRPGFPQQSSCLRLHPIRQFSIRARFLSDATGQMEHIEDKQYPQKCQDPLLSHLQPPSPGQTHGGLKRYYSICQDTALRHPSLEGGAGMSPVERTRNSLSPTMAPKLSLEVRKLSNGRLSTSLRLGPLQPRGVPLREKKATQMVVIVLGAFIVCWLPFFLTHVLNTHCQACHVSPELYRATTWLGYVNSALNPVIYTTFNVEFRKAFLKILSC

Target: D(3) dopamine receptor (Rattus norvegicus, UniProt P19020)
Assay: biochemical

With `CC(C)NCC(O)COc1cccc2ccccc12` (racemic) [PROPRANOLOL] the Ki was greater than 5 µM.

Compound `C=CCN1CC[C@]23c4c5ccc(O)c4O[C@H]2C(=O)CC[C@@]3(O)[C@H]1C5` [NALOXONE] has a Ki greater than 20 µM.
